Source: PubChem BioAssay AID1439 (NMMLSC, 2008)
In all, about 220,000 compounds went through this assay and about 770 (0.35%) were called active. This list was built around the results that the source calls inconclusive (neither active nor inactive); the mix of calls is not that of the screen. Cut-off read from the data, not from the text of the source: active = binding response below about 49% or above about 150%; inconclusive = no clear call, values can overlap the other calls; inactive = in between.

The chains behind the UniProt entries cited, without tags or fusion partners.
UniProt P09471, whole entry, looked up: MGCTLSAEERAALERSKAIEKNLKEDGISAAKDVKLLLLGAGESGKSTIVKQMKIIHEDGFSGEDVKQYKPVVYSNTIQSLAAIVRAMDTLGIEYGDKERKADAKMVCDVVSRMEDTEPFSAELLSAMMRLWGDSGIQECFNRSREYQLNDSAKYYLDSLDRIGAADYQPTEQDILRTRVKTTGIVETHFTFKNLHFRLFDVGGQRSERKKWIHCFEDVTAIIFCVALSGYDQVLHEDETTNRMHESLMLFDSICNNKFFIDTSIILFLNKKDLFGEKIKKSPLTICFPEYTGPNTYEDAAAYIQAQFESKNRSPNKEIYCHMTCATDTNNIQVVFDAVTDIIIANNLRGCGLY

Molecular target: Guanine nucleotide-binding protein G(o) subunit alpha (Homo sapiens) (UniProt P09471)
Assay: RGS7-Galphao binding modulators, primary screen, biochemical, multiplexed bead flow cytometry (AID 1439);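 note: fluorescent Galphao held in activated GDP-AlF4 state binding bead-coupled RGS7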
Settings: at 10 µM, actives lie on both sides

SMILES	binding response (% of control)
CN(CC#CC(O)(c1ccccc1)c1ccccc1)C(C)(C)C	inconclusive: 154%
Nc1ccc(S(N)(=O)=O)cc1N	inconclusive: 98.8%
CC(=O)c1c(COC(=O)c2ccccc2Cl)nc2ccccc2[n+]1[O-]	inconclusive: 108%
O=C(Cn1c(=O)oc2cc(S(=O)(=O)NCc3ccccc3)ccc21)N1CCCC1	inconclusive: 102%
CC(C)(C)NC(=O)NCCc1ccccc1	inconclusive: 92.4%
CCCN1CCC(=NNC(=O)CSc2cc(C)c(Br)cc2C)CC1	inactive: 101%
COc1ccc(C2=CC3=C(Br)C(=O)C(C)(O)C(=O)C3=CO2)cc1 (stereo not drawn)	inconclusive: 108%
FC(F)(F)c1cccc(OCc2noc(-c3ccsc3)n2)c1	inconclusive: 135%
O=C(/C=C/c1ccco1)Nc1cccc(C(=O)Nc2ccccc2C(=O)O)c1	inconclusive: 31.6%
COc1ccc(NC(=S)NCCCN2CCCC2)cc1Cl	inconclusive: 104%
CN(CC(=O)O)S(=O)(=O)c1ccc2[nH]c(=O)c(=O)[nH]c2c1	inconclusive: 87.1%
c1ccc(-c2nccc(-c3ccco3)n2)nc1	inconclusive: 93.8%
Cc1ccc(CCNC(=O)c2cc(-c3ccncc3)nc3ccccc23)cc1	inconclusive: 341%
CC(=O)c1cccc(Nc2cc(C)nc3ccccc23)c1	inconclusive: 91.7%
C=CCNC(=O)CCCCCNS(=O)(=O)c1ccc(OC)cc1	inactive: 115%
COc1ccccc1CNC(=O)CCc1c(C)nc2cc(-c3ccccc3OC)nn2c1C	inconclusive: 114%
COc1ccc(CNCCC(c2ccc(F)cc2)c2ccc(OC(C)C)cc2)cc1OC (stereo not drawn)	inconclusive: 76.2%
COC(=O)C(NC(C)=O)(Nc1cccc(C)n1)C(F)(F)F (stereo not drawn)	inconclusive: 111%
CNC(=O)c1ccsc1NC(=O)c1coc2ccccc2c1=O	active: -6.62%
CC(C)(C)N(Cc1ccccc1)C(=O)COC(=O)c1cccc([N+](=O)[O-])c1	inconclusive: 108%

SMILES	binding response (% of control)
O=C(c1ccc(Cl)c(Cl)c1)N1CCC(=O)N(C(COCc2ccccc2)Cc2ccccc2)CC1 (stereo not drawn)	inactive: 99.3%
COC(=O)c1sccc1NC(=S)NCc1ccc(Cl)cc1	inconclusive: 88.3%
Cc1ccccc1NC(=O)Nc1ccccc1N1CCCCC1	inconclusive: 25.7%
CCn1cc(C(=O)O)c(=O)c2cnc(N3CCN(C(=S)NC(=O)c4ccccc4)CC3)nc21	inconclusive: -342%
Clc1ccc(-c2csc(-c3cccnc3)n2)s1	inconclusive: 98.1%
O=C(CCc1nnc(CCCCc2ccccc2)o1)N1CCCCC1CCO (stereo not drawn)	inconclusive: 143%
CCO[C@H]1OC(C(=O)NC2CC2)=C[C@@H](C2CCCCC2)[C@@H]1CCCO	inconclusive: 42.8%
C/C=C\C=C/C(=O)Nc1cccc(C2=NOC3(C2)C[C@@H](C(N)=O)N(C(=O)CCCCC)C3)c1 (stereo partly drawn)	inconclusive: 65.8%
CC(=O)c1ccc(NC(=O)C(C)Sc2ccccn2)cc1 (stereo not drawn)	inconclusive: 120%
COCCn1c(NC(=S)NC(=O)C23CC4CC(CC(C4)C2)C3)cc(=O)[nH]c1=O	inconclusive: 85.9%
O=[N+]([O-])c1ccc(-c2nc(NCC3CCCO3)c3ccccc3n2)cc1 (stereo not drawn)	inconclusive: 13.6%
O=C(O)CSc1c(-c2ccccc2)[nH]c2ccccc12	inactive: 70%
COc1cc(/C=N/NC(=O)C2CCN(CC(O)COCc3ccccc3)CC2)cc(OC)c1OC (stereo not drawn)	inconclusive: 90.4%
O=C1NCCCCC1NS(=O)(=O)c1ccc(F)c(F)c1 (stereo not drawn)	inconclusive: 179%
COc1ccc(NC(=O)c2onc(C)c2Cl)cc1	inconclusive: 127%
CCn1c(N)[n+](CC(=O)Nc2ccc(SC(F)F)cc2)c2ccccc21	inconclusive: 35.8%
NC(=O)CC(NC(=O)Cc1cccc2ccccc12)c1ccc(N2CCN(c3ccc(F)cc3)CC2)c([N+](=O)[O-])c1 (stereo not drawn)	inconclusive: 96.2%
Cc1nn(C)cc1/C=N/NC(=O)Cn1nnc(N)n1	inconclusive: 109%
O=S(=O)(NNc1nccc(C(F)(F)F)n1)c1cccc(Cl)c1Cl	inconclusive: 33.8%
COC(=O)c1ccc(NC(=S)NC2c3ccccc3CC2O)cc1 (stereo not drawn)	inactive: 102%

Some values from the entries so far:
CCn1cc(C(=O)O)c(=O)c2cnc(N3CCN(C(=S)NC(=O)c4ccccc4)CC3)nc21 | binding response (% of control): inconclusive: -342%
COC(=O)c1sccc1NC(=S)NCc1ccc(Cl)cc1 | binding response (% of control): inconclusive: 88.3%
Clc1ccc(-c2csc(-c3cccnc3)n2)s1 | binding response (% of control): inconclusive: 98.1%
O=C(O)CSc1c(-c2ccccc2)[nH]c2ccccc12 | binding response (% of control): inactive: 70%
O=C(c1ccc(Cl)c(Cl)c1)N1CCC(=O)N(C(COCc2ccccc2)Cc2ccccc2)CC1 (stereo not drawn) | binding response (% of control): inactive: 99.3%

Additional entries:

SMILES	binding response (% of control)
CC(=O)Oc1ccc2oc(-c3ccccc3)c(C(N)=O)c2c1	inconclusive: 84.2%
O=C(Nc1cccc(F)c1)N1CCC(n2c(=O)[nH]c3ccccc32)CC1	inconclusive: 97.9%
CC1Cc2ccccc2N1C1=CC(=O)CC(C)(C)C1 (stereo not drawn)	inconclusive: 117%
CC1CC(C)CN(c2nc(N(C)c3ccccc3)nc(N)c2[N+](=O)[O-])C1 (stereo not drawn)	inconclusive: 56.8%
CC1(C)CC(=O)c2c(Cc3ccccc3)noc2C1	inconclusive: 90.1%
COc1cccc(CN2CCCCC2C(=O)O)c1 (stereo not drawn)	inconclusive: 109%
Cc1c(O)nc2sc3ccccc3n2c1=O	inconclusive: 116%
Cc1ccc(NC(=O)c2cnc3ccccc3n2)cc1C	inconclusive: 68.5%
CCCCN(C(=O)CSc1nnnn1C)c1c(N)n(Cc2ccccc2)c(=O)[nH]c1=O	inconclusive: 99.4%
COc1ccc(C(C)=O)cc1Cn1cnc2c(cnn2C)c1=O	inconclusive: -1.22%
Cc1cccc(N(Cc2cc3ccc(C)cc3[nH]c2=O)C(=O)c2ccco2)c1	inconclusive: 189%
N#C/C(=C\c1ccc(C(=O)O)cc1)S(=O)(=O)c1cc(Br)ccc1Br	inconclusive: 89%
CCOC(=O)N1CCN(Cc2nc3c(c(=O)[nH]c(=O)n3C)n2Cc2cc(C)ccc2C)CC1	inactive: 95.7%
O=[N+]([O-])c1ccc(N=Cc2c(O)ccc3ccccc23)cc1	inconclusive: 93%
CCO/C(C)=C1/SC(=S)NC1=O	inconclusive: 113%
CN(C)c1ccc(-c2cc([C@H]3[C@@H]4C=CCC[C@@]4(C)C(=O)N3Cc3ccccc3)ccc2F)cc1	inconclusive: 48.3%
COc1cc(CC(=O)O)c([N+](=O)[O-])cc1OC	inconclusive: 93%
CCOC(=O)c1oc2c(CN3CCN(C)CC3)c(O)ccc2c(=O)c1-c1ccc(Br)cc1	active: 318% [activator]
